Measurements as given in article PMC10413709.
Results are given in words; binding and its absence hold for the method and conditions named. Binding seen in cells or lysates may run through a third protein. Binding can be weak; no strength is given. Where a sequence is shown, tags or fusion partners need not be part of it.

Biological target: GFP-EIF3H truncation construct with the JAB/MP domain
Experiment: co-IP; HEK293 cells transfected with 2 µg Myc-OGT and GFP-EIF3H full-length or mutants; NP-40 lysis buffer; precipitated with GFP antibody, detected by Myc antibody

binding: binds
B1: Myc-OGT full-length (protein, UniProt O15294 1-1046)
chain: MASSVGNVADSTEPTKRMLSFQGLAELAHREYQAGDFEAAERHCMQLWRQEPDNTGVLLLLSSIHFQCRRLDRSAHFSTLAIKQNPLLAEAYSNLGNVYKERGQLQEAIEHYRHALRLKPDFIDGYINLAAALVAAGDMEGAVQAYVSALQYNPDLYCVRSDLGNLLKALGRLEEAKACYLKAIETQPNFAVAWSNLGCVFNAQGEIWLAIHHFEKAVTLDPNFLDAYINLGNVLKEARIFDRAVAAYLRALSLSPNHAVVHGNLACVYYEQGLIDLAIDTYRRAIELQPHFPDAYCNLANALKEKGSVAEAEDCYNTALRLCPTHADSLNNLANIKREQGNIEEAVRLYRKALEVFPEFAAAHSNLASVLQQQGKLQEALMHYKEAIRISPTFADAYSNMGNTLKEMQDVQGALQCYTRAIQINPAFADAHSNLASIHKDSGNIPEAIASYRTALKLKPDFPDAYCNLAHCLQIVCDWTDYDERMKKLVSIVADQLEKNRLPSVHPHHSMLYPLSHGFRKAIAERHGNLCLDKINVLHKPPYEHPKDLKLSDGRLRVGYVSSDFGNHPTSHLMQSIPGMHNPDKFEVFCYALSPDDGTNFRVKVMAEANHFIDLSQIPCNGKAADRIHQDGIHILVNMNGYTKGARNELFALRPAPIQAMWLGYPGTSGALFMDYIITDQETSPAEVAEQYSEKLAYMPHTFFIGDHANMFPHLKKKAVIDFKSNGHIYDNRIVLNGIDLKAFLDSLPDVKIVKMKCPDGGDNADSSNTALNMPVIPMNTIAEAVIEMINRGQIQITINGFSISNGLATTQINNKAATGEEVPRTIIVTTRSQYGLPEDAIVYCNFNQLYKIDPSTLQMWANILKRVPNSVLWLLRFPAVGEPNIQQYAQNMGLPQNRIIFSPVAPKEEHVRRGQLADVCLDTPLCNGHTTGMDVLWAGTPMVTMPGETLASRVAASQLTCLGCLELIAKNRQEYEDIAVKLGTDLEYLKKVRGKVWKQRISSPLFNTKQYTMELERLYLQMWEHYAAGNKPDHMIKPVEVTESA
